From the supplement of paper PMC6078165
Values are relative to the signal before dosing, not to a vehicle control; the signal also falls without drug.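 Fibroblast labels name human fibroblasts: mostly primary ones from tissues such as uterus (C12385, HUF), lung (H6013), bone (Hs27A), adrenal (HADF) and skin (WS1), plus mammary HMF and breast cancer-associated Hs343T. The cancer cells are basal-like or mesenchymal-like triple-negative breast cancer lines. The paper calls a changed response a hit when it shifts by more than 3x the replicate standard deviation. The tissue of the other fibroblasts is not given here.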

System: BT20
Assay: relative JC-1 red fluorescence (viability) vs pre-drug, coculture with fibroblast (fraction); higher = more viable cancer cells
Method: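 JC-1 labelled TNBC cells cocultured 1:1 (1,500 cells each) with CellTrace Violet stained primary or stromal fibroblasts in 384-well plates in FluoroBrite medium, treated with one of 42 anticancer drugs at 0.1, 1, 10 or 100 uM. JC-1 red fluorescence (mitochondrial integrity in cancer cells only) was read by plate reader every 8 h for 72 h. Values are normalised to each well's pre-drug value. The stock of one drug was tenfold lower, so its dose labels may be too high.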

CC(=O)O[C@H]1C(=O)[C@@]2(C)[C@H]([C@H](OC(=O)c3ccccc3)[C@]3(O)C[C@H](OC(=O)[C@H](O)[C@@H](NC(=O)c4ccccc4)c4ccccc4)C(C)=C1C3(C)C)[C@]1(OC(C)=O)CO[C@@H]1C[C@@H]2O [Paclitaxel]
Conditions | relative JC-1 red fluorescence
1 µM, 40 h, coculture fibroblast: HHSteC | 0.787
1 µM, 40 h, coculture fibroblast: HMF | 0.625
1 µM, 40 h, coculture fibroblast: HPFa | 0.755
1 µM, 40 h, coculture fibroblast: HUF | 0.5978
1 µM, 40 h, coculture fibroblast: Hs5 | 0.761
1 µM, 40 h, coculture fibroblast: Hs27A | 0.928
1 µM, 40 h, coculture fibroblast: Hs343T | 0.586
1 µM, 40 h, coculture fibroblast: WS1 | 0.624
1 µM, 48 h, coculture fibroblast: C12385 | 0.652
1 µM, 48 h, coculture fibroblast: H6013 | 0.822
1 µM, 48 h, coculture fibroblast: H6019 | 0.691
1 µM, 48 h, coculture fibroblast: H6076 | 0.7117
1 µM, 48 h, coculture fibroblast: H6231 | 0.553
1 µM, 48 h, coculture fibroblast: HADF | 0.678
1 µM, 48 h, coculture fibroblast: HCFa | 0.63
1 µM, 48 h, coculture fibroblast: HCPF | 0.608
1 µM, 48 h, coculture fibroblast: HHSteC | 0.768
1 µM, 48 h, coculture fibroblast: HMF | 0.555
1 µM, 48 h, coculture fibroblast: HPFa | 0.698
1 µM, 48 h, coculture fibroblast: HUF | 0.524
1 µM, 48 h, coculture fibroblast: Hs5 | 0.729
1 µM, 48 h, coculture fibroblast: Hs27A | 0.914
1 µM, 48 h, coculture fibroblast: Hs343T | 0.513
1 µM, 48 h, coculture fibroblast: WS1 | 0.594
1 µM, 56 h, coculture fibroblast: C12385 | 0.612
1 µM, 56 h, coculture fibroblast: H6013 | 0.733
1 µM, 56 h, coculture fibroblast: H6019 | 0.664
1 µM, 56 h, coculture fibroblast: H6076 | 0.697
1 µM, 56 h, coculture fibroblast: H6231 | 0.51
1 µM, 56 h, coculture fibroblast: HADF | 0.651
1 µM, 56 h, coculture fibroblast: HCFa | 0.59
1 µM, 56 h, coculture fibroblast: HCPF | 0.583
1 µM, 56 h, coculture fibroblast: HHSteC | 0.76
1 µM, 56 h, coculture fibroblast: HMF | 0.514
1 µM, 56 h, coculture fibroblast: HPFa | 0.68
1 µM, 56 h, coculture fibroblast: HUF | 0.48
1 µM, 56 h, coculture fibroblast: Hs5 | 0.69
1 µM, 56 h, coculture fibroblast: Hs27A | 0.955
1 µM, 56 h, coculture fibroblast: Hs343T | 0.469
1 µM, 56 h, coculture fibroblast: WS1 | 0.576
1 µM, 64 h, coculture fibroblast: C12385 | 0.605
1 µM, 64 h, coculture fibroblast: H6013 | 0.71
1 µM, 64 h, coculture fibroblast: H6019 | 0.644
1 µM, 64 h, coculture fibroblast: H6076 | 0.699
1 µM, 64 h, coculture fibroblast: H6231 | 0.498
1 µM, 64 h, coculture fibroblast: HADF | 0.654
1 µM, 64 h, coculture fibroblast: HCFa | 0.562
1 µM, 64 h, coculture fibroblast: HCPF | 0.56
1 µM, 64 h, coculture fibroblast: HHSteC | 0.745
1 µM, 64 h, coculture fibroblast: HMF | 0.484
1 µM, 64 h, coculture fibroblast: HPFa | 0.67
1 µM, 64 h, coculture fibroblast: HUF | 0.44
1 µM, 64 h, coculture fibroblast: Hs5 | 0.684
1 µM, 64 h, coculture fibroblast: Hs27A | 0.929
1 µM, 64 h, coculture fibroblast: Hs343T | 0.443
1 µM, 64 h, coculture fibroblast: WS1 | 0.572
1 µM, 72 h, coculture fibroblast: C12385 | 0.612
1 µM, 72 h, coculture fibroblast: H6013 | 0.726
1 µM, 72 h, coculture fibroblast: H6019 | 0.626
1 µM, 72 h, coculture fibroblast: H6076 | 0.693
1 µM, 72 h, coculture fibroblast: H6231 | 0.475
1 µM, 72 h, coculture fibroblast: HADF | 0.62
1 µM, 72 h, coculture fibroblast: HCFa | 0.518
1 µM, 72 h, coculture fibroblast: HCPF | 0.529
1 µM, 72 h, coculture fibroblast: HHSteC | 0.715
1 µM, 72 h, coculture fibroblast: HMF | 0.47
1 µM, 72 h, coculture fibroblast: HPFa | 0.639
1 µM, 72 h, coculture fibroblast: HUF | 0.424
1 µM, 72 h, coculture fibroblast: Hs5 | 0.666
1 µM, 72 h, coculture fibroblast: Hs27A | 0.897
1 µM, 72 h, coculture fibroblast: Hs343T | 0.421
1 µM, 72 h, coculture fibroblast: WS1 | 0.58
10 µM, 8 h, coculture fibroblast: C12385 | 0.932
10 µM, 8 h, coculture fibroblast: H6013 | 0.992
10 µM, 8 h, coculture fibroblast: H6019 | 0.919
10 µM, 8 h, coculture fibroblast: H6076 | 0.889
10 µM, 8 h, coculture fibroblast: H6231 | 0.764
10 µM, 8 h, coculture fibroblast: HADF | 0.935
10 µM, 8 h, coculture fibroblast: HCFa | 0.903
10 µM, 8 h, coculture fibroblast: HCPF | 0.828
10 µM, 8 h, coculture fibroblast: HHSteC | 0.868
10 µM, 8 h, coculture fibroblast: HMF | 0.847
10 µM, 8 h, coculture fibroblast: HPFa | 0.842
10 µM, 8 h, coculture fibroblast: HUF | 0.966
10 µM, 8 h, coculture fibroblast: Hs5 | 0.8839
10 µM, 8 h, coculture fibroblast: Hs27A | 0.922
10 µM, 8 h, coculture fibroblast: Hs343T | 0.991
10 µM, 8 h, coculture fibroblast: WS1 | 0.9185
10 µM, 16 h, coculture fibroblast: C12385 | 0.878
10 µM, 16 h, coculture fibroblast: H6013 | 0.9219
10 µM, 16 h, coculture fibroblast: H6019 | 0.854
10 µM, 16 h, coculture fibroblast: H6076 | 0.9186
10 µM, 16 h, coculture fibroblast: H6231 | 0.945
10 µM, 16 h, coculture fibroblast: HADF | 0.918
10 µM, 16 h, coculture fibroblast: HCFa | 0.879
10 µM, 16 h, coculture fibroblast: HCPF | 0.941
10 µM, 16 h, coculture fibroblast: HHSteC | 0.8985
10 µM, 16 h, coculture fibroblast: HMF | 0.939
10 µM, 16 h, coculture fibroblast: HPFa | 0.929
10 µM, 16 h, coculture fibroblast: HUF | 0.896
10 µM, 16 h, coculture fibroblast: Hs5 | 0.874
10 µM, 16 h, coculture fibroblast: Hs27A | 0.738
10 µM, 16 h, coculture fibroblast: Hs343T | 0.882
10 µM, 16 h, coculture fibroblast: WS1 | 0.8346
10 µM, 24 h, coculture fibroblast: C12385 | 0.845
10 µM, 24 h, coculture fibroblast: H6013 | 0.8892
10 µM, 24 h, coculture fibroblast: H6019 | 0.866
10 µM, 24 h, coculture fibroblast: H6076 | 0.8511
